Source: PubChem BioAssay AID1159506 (NCATS, 2015).

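Luminescence from an EWS-FLI1 target-promoter (NR0B1) reporter, set against a CMV-promoter reporter, two days after silencing single genes in TC32 Ewing sarcoma cells.
Each siRNA was applied at 20 nM.
A z-score of the log NR0B1-over-CMV signal, less the median of siRNAs with the same seed; more negative means a stronger specific loss of the NR0B1 reporter.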

The strongest results of the screen are mostly left out here.
Sequences are the guide (antisense) strand, without overhang.

| # | siRNA | gene | seed-corrected z-score |
|---|---|---|---|
| 1 | `UAAGAUUCUAUCAAACACU` | TIMM22 | 0.1483 |
| 2 | `UAUAUGCCCGCUGUGCUCU` | GSTZ1 | -0.1141 |
| 3 | `UCUCGAGUAAGGUACAUAU` | HOXA10 | 0.207 |
| 4 | `UUCAUGAAAGCGGUGAUGC` | ZFAT | 0.04902 |
| 5 | `UACAUGGUCUCAUCAUCCC` | ARPC2 | -1.632 |
| 6 | `UGUUUAGCUAUUGCAAGUG` | AKNAD1 | 1.161 |
| 7 | `UAACUUCUAACAUUGAUCG` | ACTR2 | -1.147 |
| 8 | `UAGGCGGUUAAUUAUCACG` | CHD6 | -0.4436 |
| 9 | `UUUGUUUCAGCAUCUUGUC` | GSG2 | -1.493 |
| 10 | `UGUUCGAUUCUGCUGUUCC` | NCKAP5 | -0.1974 |
| 11 | `UAAGAGUCCACUGACCGAG` | ATF6 | 0.3541 |
| 12 | `UUGCCGUUCAAAUAACUCC` | INO80 | -0.4628 |
| 13 | `UUCGGUUUUGGUAACAUUG` | ACVR1C | 0.1053 |
| 14 | `UAAUAUGCACGAGUGUUGG` | MB21D1 | 0.121 |
| 15 | `AUCGGUUUAUGUAAGUCUC` | ADH4 | -0.6009 |
| 16 | `UAGGCUUCAGGUCCCACUC` | ALDH4A1 | 0.04774 |
| 17 | `UCCUCCAUAAUUAGGUUGG` | PCDHGB4 | -0.7542 |
| 18 | `UUCAAGUAGGGCAGGAACG` | ZNF414 | -0.1469 |
| 19 | `UGAGUAUCCUCUGCAUCUC` | HHLA3 | -0.1327 |
| 20 | `UUAGCUCCCACAGAUACCU` | SPARC | 1.309 |
| 21 | `UUCCGUUCUAAAACUUCUG` | PHACTR4 | 0.04951 |
| 22 | `UUUCUUCACCGGGUCCUUC` | HNRNPAB | 0.9821 |
| 23 | `AACAAUACAACCCACAUGG` | PLEK | -1.783 |
| 24 | `AAAGUUAAUGUGCCCGUUG` | RASGEF1A | 1.159 |
| 25 | `UCAGCGUAUAGACUCGAUC` | NOP10 | -0.1536 |
| 26 | `UAAGUACGUCUUGAAGAUG` | CLUH | -0.1288 |
| 27 | `UGAUGUGCAAAGACUGCCC` | IKBKB | 0.06204 |
| 28 | `AGCGGAAGAAGUUAUCUCG` | ITM2C | 1.816 |
| 29 | `UCAAUGGUCUCCGUCAGCC` | CDR2L | 0.7843 |
| 30 | `UUAGGGCUACGUGUCUUCG` | PUS3 | 0.3865 |
| 31 | `AAUGAUGUCAUUACAACAG` | ELF2 | 0.3339 |
| 32 | `UUCGCUGUCACUUGAACUG` | AFF1 | -0.01001 |
| 33 | `UUCGGUUUCUCUUACUGCG` | SNIP1 | 0.3056 |
| 34 | `UCUCACUCCGCUCAAAUCG` | KCTD7 | -0.7094 |
| 35 | `AACCUCAGCAGCAAAGUCC` | YARS | 0.1655 |
| 36 | `UCAGCAAACAUGUAGGUUG` | SCARF1 | -0.1887 |
| 37 | `UUUGUCUUUCUCGUAGUCC` | PPM1L | -0.1684 |
| 38 | `UUUGUUCCCAGGUUUGAUG` | ZNF225 | 2.093 |
| 39 | `AAUGUCUUCUGUUAGGUUC` | DCUN1D4 | -0.6194 |
| 40 | `UUUAAGGUCACUCGGAUGG` | CYB5B | 0.6843 |
| 41 | `UCGCUGUCAACCUCGGAGA` | CALML5 | -0.5117 |
| 42 | `AGAGUUUGUAAGGAACUGC` | PHOX2B | 3.256 |
| 43 | `AACUCUUUAAAAUCCGUUG` | NSMAF | -0.3946 |
| 44 | `AAUGCAACGAUGAUGGAGC` | SYPL2 | 0.02246 |
| 45 | `UUCUGUGGAACUGAUGGAC` | DEFB113 | -0.06839 |
| 46 | `UACGUGAUAAAGGGAUAGG` | CHRNB3 | -1.86 |
| 47 | `UCAGCAAUCAUUCUAACAG` | GJA3 | 0.03953 |
| 48 | `UUUAGACUUGCCGUCAUUG` | PTPN11 | -0.5419 |
| 49 | `UAACUUCGUAAUUUCUGCC` | NOC3L | 0.1839 |
| 50 | `UUCGUGAAAAACAGUAAGG` | APC | -0.1751 |
| 51 | `UUACUGCUCAUGUAGACAG` | CTSE | -0.2443 |
| 52 | `AAAGUCAUGGUCAAACUUC` | ASIC5 | 0.169 |
| 53 | `UUAACUUUCUGUCUCGUUG` | REXO1L1P | 0.9211 |
| 54 | `UUCCCGAUCUCGAUGAGGC` | ADAMTS2 | -0.1373 |
| 55 | `AAAGUUUUAUCCAUAGAAG` | WDR25 | 1.395 |
| 56 | `AGCUUCACAAUUUCGAUGG` | ATP10D | 0.4026 |
| 57 | `UGAGUUAUAACCAUGUCCU` | PNRC2 | -0.1083 |
| 58 | `UUUUGUCCACCUCGUAUCC` | CHIT1 | -0.07771 |
| 59 | `UUUCCAGCUAAUCCAGUGC` | CHTF8 | -0.1867 |
| 60 | `UGACAUAGCACGGACUUCC` | ASXL1 | 2.008 |
| 61 | `UACUGUGAAAUCGAGGUCU` | PRMT8 | -1.627 |
| 62 | `AGAUGUUCUGGGUUGGAUG` | NUP43 | -1.712 |
| 63 | `UACCUACUCACAGCAUCUC` | TTC9C | -0.7332 |
| 64 | `UUGUUGUUCUGCACCGUGC` | NR5A1 | -0.1369 |
| 65 | `AAUCUAUCUUCGGCGAUGC` | NUP153 | -0.0447 |
| 66 | `AACCGUCUCAUGUCCCUUG` | EBF2 | 0.08966 |
| 67 | `UUACUAAUUCAGUAGGCUG` | EPB41L2 | 0.201 |
| 68 | `UUUCAGAUGAUUAGACUGC` | TRMT2B | 0.4803 |
| 69 | `UGGGAUUUUAGCUCGGAUC` | RTN2 | 1.652 |
| 70 | `UGAGAUUCAAGGCUGUCUG` | ADGRD1 | -1.034 |
| 71 | `CAUGGUGACAAUGACGUUG` | PFN1P6 | 0.2261 |
| 72 | `UUGUUUUCAGUUUAGGAUG` | TAS2R4 | 1.036 |
| 73 | `AUAGUCAUCAUAUCUGAUG` | SESN2 | 1.083 |
| 74 | `UUCGGUAUGAUGCUUGUUG` | OR13G1 | -0.2362 |

For reference, 6 entries once more:

{"sirna": "UCCUCCAUAAUUAGGUUGG", "gene": "PCDHGB4", "seed-corrected z-score": "-0.7542"}
{"sirna": "AGAGUUUGUAAGGAACUGC", "gene": "PHOX2B", "seed-corrected z-score": "3.256"}
{"sirna": "UACAUGGUCUCAUCAUCCC", "gene": "ARPC2", "seed-corrected z-score": "-1.632"}
{"sirna": "UCAGCAAUCAUUCUAACAG", "gene": "GJA3", "seed-corrected z-score": "0.03953"}
{"sirna": "UUCGGUUUUGGUAACAUUG", "gene": "ACVR1C", "seed-corrected z-score": "0.1053"}
{"sirna": "AAUGUCUUCUGUUAGGUUC", "gene": "DCUN1D4", "seed-corrected z-score": "-0.6194"}